{"source": "PubChem BioAssay AID1259424, University of Nebraska Medical Center | 2018", "screen": "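Seek colon cancer survival genes behaving like KSR1, using a six-gene signature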 (primary screen)", "cell system": "human HCT116 colon cancer cells", "knock-down reagent": "siRNA pool against human genes, 50 nM", "measured": "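Log2 levels of six mRNAs (branched-DNA multiplex), adjusted by two reference genes and the non-targeting median, then scored against the average KSR1 knockdown pattern as Pearson r and euclidean distance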", "scale": "mean correlation with KSR1 profile: higher = expression change more like KSR1 knockdown", "note": "In all, the deposit lists about 14,000 reagents; this is a part drawn at random. 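Higher correlation or smaller distance means closer resemblance to KSR1 loss; control wells, including KSR1 knockdowns, recur on many plates.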 Some reagents were tested in more than one well and are listed for each. Further read-outs or replicates are left out here. Not given: the time to read-out."}
{"gene":"TRMT13 (tRNA methyltransferase 13)","mean correlation with KSR1 profile":0.489}
{"gene":"AP1G2 (adaptor related protein complex 1 subunit gamma 2)","mean correlation with KSR1 profile":-0.314}
{"gene":"PSMB9 (proteasome 20S subunit beta 9)","mean correlation with KSR1 profile":-0.118}
{"gene":"EFS (embryonal Fyn-associated substrate)","mean correlation with KSR1 profile":0.0147}
{"gene":"SERF1A (small EDRK-rich factor 1A)","mean correlation with KSR1 profile":0.159}
{"gene":"WASL (WASP like actin nucleation promoting factor)","mean correlation with KSR1 profile":0.153}
{"gene":"PHLDA1 (pleckstrin homology like domain family A member 1)","mean correlation with KSR1 profile":-0.532}
{"gene":"DLST (dihydrolipoamide S-succinyltransferase)","mean correlation with KSR1 profile":0.104}
{"gene":"EED (embryonic ectoderm development)","mean correlation with KSR1 profile":-0.0313}
{"gene":"RGS16 (regulator of G protein signaling 16)","mean correlation with KSR1 profile":0.0684}
{"gene":"MRGPRX1 (MAS related GPR family member X1)","mean correlation with KSR1 profile":0.371}
{"gene":"S1PR2 (sphingosine-1-phosphate receptor 2)","mean correlation with KSR1 profile":0.709}
{"gene":"ZFAND3 (zinc finger AN1-type containing 3)","mean correlation with KSR1 profile":0.268}
{"gene":"CGB1 (chorionic gonadotropin subunit beta 1)","mean correlation with KSR1 profile":0.147}
{"gene":"TGFA (transforming growth factor alpha)","mean correlation with KSR1 profile":-0.606}
{"gene":"TSPAN7 (tetraspanin 7)","mean correlation with KSR1 profile":-0.533}
{"gene":"UTP14A (UTP14A small subunit processome component)","mean correlation with KSR1 profile":-0.554}
{"gene":"MTCH2","mean correlation with KSR1 profile":-0.183}
{"gene":"MFNG (MFNG O-fucosylpeptide 3-beta-N-acetylglucosaminyltransferase)","mean correlation with KSR1 profile":-0.142}
{"gene":"POLR2L (RNA polymerase II, I and III subunit L)","mean correlation with KSR1 profile":-0.815}
{"gene":"FLACC1 (flagellum associated containing coiled-coil domains 1)","mean correlation with KSR1 profile":0.326}
{"gene":"HLA-C (major histocompatibility complex, class I, C)","mean correlation with KSR1 profile":-0.453}
{"gene":"CPLANE2 (ciliogenesis and planar polarity effector complex subunit 2)","mean correlation with KSR1 profile":0.166}
{"gene":"ADORA2B (adenosine A2b receptor)","mean correlation with KSR1 profile":0.891}
{"gene":"ADAMTSL3 (ADAMTS like 3)","mean correlation with KSR1 profile":0.403}
{"gene":"ADAMTSL3 (ADAMTS like 3)","mean correlation with KSR1 profile":0.0245}
{"gene":"TMED2 (transmembrane p24 trafficking protein 2)","mean correlation with KSR1 profile":0.253}
{"gene":"SLC18A2","mean correlation with KSR1 profile":-0.271}

As entered above.
POLR2L (RNA polymerase II, I and III subunit L), mean correlation with KSR1 profile → -0.815
For “mean correlation with KSR1 profile”, UTP14A (UTP14A small subunit processome component) shows -0.554
Under “mean correlation with KSR1 profile”, DLST (dihydrolipoamide S-succinyltransferase) shows 0.104
Value for ADORA2B (adenosine A2b receptor) under “mean correlation with KSR1 profile”: 0.891
